Laboratory results: PubChem BioAssay AID1053208 (Peter MacCallum Cancer Centre, 2014)
This is a random part of about 17,000 deposited reagents. 788 of them (4.7%) were called active. 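Calls rest on z-score classes alone; an extra cut-off of viability at most 70% of control was not applied to them.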 Not all columns of the deposit are shown.

- Test: 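Find knock-downs that sensitise mouse osteosarcoma cells to doxorubicin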 (primary screen)
- Cell system: mouse osteosarcoma cells, early-passage culture from an engineered mouse model of fibroblastic bone tumour
- Reagent: siRNA pool against mouse genes, 40 nM
- Duration: about 120 h (48 h before drug, then 72 h with drug)
- Challenge: doxorubicin 100 nM for 72 h, roughly 30-40% inhibitory dose
- Read-out: 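Luminescent ATP signal taken as viability with or without 100 nM doxorubicin for 72 h; mean of two wells set against non-targeting siRNA and turned into robust z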
- Direction: viability z-score with doxorubicin: higher = more viable cells under doxorubicin; viability z-score without drug: higher = more viable cells with knock-down alone; z-score of drug to no-drug ratio: higher = less drug sensitisation by knock-down
- Active means: 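a pool counts as active when its viability z-score with doxorubicin is -2 or below and its z-score without drug lies between -2 and 2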

| gene symbol | combined z-score class | viability z-score with doxorubicin | viability z-score without drug | z-score of drug to no-drug ratio | Call |
| --- | --- | --- | --- | --- | --- |
| Neu4 | no change with or without drug | -0.45 | 0.17 | -0.45 | inactive |
| Nanos1 | no change with or without drug | 0.67 | 1.18 | 0 | inactive |
| Becn1 | no change with or without drug | 1.35 | 0.51 | 1.12 | inactive |
| Faf2 | no change with or without drug | 0 | -0.17 | 0.22 | inactive |
| Vmn1r203 | high cell count without drug only | 1.01 | 2.19 | -0.34 | inactive |
| Chaf1b | no change with or without drug | -0.22 | 1.35 | -1.01 | inactive |
| Hkdc1 | no change with or without drug | 0.56 | 0.51 | 0.34 | inactive |
| P2ry1 | no change with or without drug | 0.34 | -0.84 | 1.12 | inactive |
| Med23 | no change with or without drug | -1.12 | -0.17 | -1.01 | inactive |
| Chrnd | no change with or without drug | 0 | -0.51 | 0.45 | inactive |
| Sgcz | low cell count without drug only | 0.22 | -2.19 | 2.14 | inactive |

Laid out differently: entries from further up
Faf2
- combined z-score class: no change with or without drug
- viability z-score with doxorubicin: 0
- viability z-score without drug: -0.17
- z-score of drug to no-drug ratio: 0.22
- Call: inactive

Vmn1r203
- combined z-score class: high cell count without drug only
- viability z-score with doxorubicin: 1.01
- viability z-score without drug: 2.19
- z-score of drug to no-drug ratio: -0.34
- Call: inactive

Chaf1b
- combined z-score class: no change with or without drug
- viability z-score with doxorubicin: -0.22
- viability z-score without drug: 1.35
- z-score of drug to no-drug ratio: -1.01
- Call: inactive

More entries follow.
| gene symbol | combined z-score class | viability z-score with doxorubicin | viability z-score without drug | z-score of drug to no-drug ratio | Call |
| --- | --- | --- | --- | --- | --- |
| Twsg1 | low cell count with doxorubicin only | -2.59 | -1.52 | -1.69 | active |
| Cited4 | no change with or without drug | -0.22 | 0.17 | -0.22 | inactive |
| Or1f19 | no change with or without drug | -1.8 | -1.52 | -0.79 | inactive |
| Cep120 | no change with or without drug | 0 | -0.84 | 0.67 | inactive |
| Lurap1l | no change with or without drug | 0.45 | 1.52 | -0.45 | inactive |
| Pcdhga6 | no change with or without drug | -1.57 | -0.17 | -1.46 | inactive |
| Prl2c3 | no change with or without drug | 0.45 | -0.51 | 1.01 | inactive |
| Irf5 | no change with or without drug | -0.45 | 1.01 | -1.01 | inactive |
| Ms4a8a | no change with or without drug | 0.22 | -1.69 | 1.69 | inactive |
